Test results from PubChem BioAssay AID248 (DTP/NCI, 2004).
The list does not hold the whole screen: it gathers tests that were run many times, whatever their T/C, doses with no T/C, and many T/C values between a quarter and a half above the control. Further doses and runs are listed elsewhere. T/C gives the treated animals as a percentage of the vehicle group. Some entries give survivors of the animals treated and no T/C: the source files T/C as zero there, which appears to mark a toxic dose or a test without result, not a measured value. Some doses without a T/C left all or most animals alive at the check, yet need not have been tolerated: the source hardly ever lists a survival T/C far under the control, and the zero likely stands for such cases as well. Survivors were counted at the toxicity check, usually on the fifth day, unless a day is given; later deaths do not show. Schedule codes are those of the source, read here as Q, the interval in days (D) or hours (H), X, the number of doses. Where survival is the endpoint, this PubChem deposit counts one and a half times the control or more as active, and values a quarter to a half above the control carry no call in these data; other NCI protocols may use other cut-offs. Some entries hold several experiments; the values are given in rising order. Some T/C values are followed by the survivors on the day toxicity was checked, most often the fifth; without a count, all were alive then.

System: L1210 leukemia ip in BDF1 mice, survival T/C
Test: NCI In Vivo Anticancer Drug Screen. Data for tumor model L1210 Leukemia (intraperitoneal) in B6D2F1 (BDF1) mice
Conditions: T/C endpoint: mean survival time, higher T/C = longer survival
[1] = dose: 12.5 mg/kg/injection, schedule: Q01DX009 (ip), vehicle: saline
[2] = dose: 25.0 mg/kg/injection, schedule: Q01DX009 (ip), vehicle: saline
[3] = dose: 100.0 mg/kg/injection, schedule: Q04DX003 (ip), vehicle: saline with Tween-80
[4] = dose: 200.0 mg/kg/injection, schedule: Q04DX003 (ip), vehicle: saline with Tween-80
[5] = dose: 200.0 mg/kg/injection, schedule: Q04DX003 (ip), vehicle: Klucel (hydroxypropylcellulose) (HPC)
[6] = dose: 400.0 mg/kg/injection, schedule: Q04DX003 (ip), vehicle: Klucel (hydroxypropylcellulose) (HPC)
[7] = dose: 400.0 mg/kg/injection, schedule: Q01DX001 (ip), vehicle: saline

CC(=O)OCC1OC(N2C(=O)/C(=C/c3ccc([N+](=O)[O-])cc3)SC2=S)C(OC(C)=O)C(OC(C)=O)C1OC(C)=O (configuration not stated)
survivor count (dose: 25.0 mg/kg/injection, schedule: Q01DX005 (ip), vehicle: other): 0 of 6 | survivor count (dose: 50.0 mg/kg/injection, schedule: Q01DX005 (ip), vehicle: other): 0 of 6 | survivor count (dose: 100.0 mg/kg/injection, schedule: Q01DX005 (ip), vehicle: other): 1 of 6 | survivor count (dose: 200.0 mg/kg/injection, schedule: Q01DX005 (ip), vehicle: other): 0 of 6 | survivor count (dose: 400.0 mg/kg/injection, schedule: Q01DX005 (ip), vehicle: other): 0 of 6

CCCCCCCCNc1cc2c3c(c1)CCCN3CCC2
survivor count (dose: 6.25 mg/kg/injection, schedule: Q01DX009 (ip), vehicle: saline): 3 of 6 | survivor count [1]: 0 of 6 | survivor count (dose: 12.5 mg/kg/injection, schedule: Q04DX003 (ip), vehicle: alcohol): 4 of 6 | survivor count [2]: 0 of 6 | survivor count (dose: 50.0 mg/kg/injection, schedule: Q04DX003 (ip), vehicle: alcohol): 0 of 6 | survivor count (dose: 100.0 mg/kg/injection, schedule: Q04DX003 (ip), vehicle: alcohol): 0 of 6 | survivor count (dose: 200.0 mg/kg/injection, schedule: Q04DX003 (ip), vehicle: alcohol): 0 of 6 | survivor count (dose: 400.0 mg/kg/injection, schedule: Q04DX003 (ip), vehicle: alcohol): 0 of 6

c1ccc(NC2=NCCO2)cc1
survivor count (dose: 200.0 mg/kg/injection, schedule: Q04DX002 (ip), vehicle: saline with Tween-80): 3 of 3

CCC[CH2][Pb]([Cl])([CH2]CCC)[CH2]CCC
survivor count (dose: 12.5 mg/kg/injection, schedule: Q01DX009 (ip), vehicle: saline with Tween-80): 2 of 6 | survivor count (dose: 25.0 mg/kg/injection, schedule: Q01DX009 (ip), vehicle: saline with Tween-80): 2 of 6 | survivor count [3]: 0 of 6 | survivor count [4]: 0 of 6 | survivor count (dose: 400.0 mg/kg/injection, schedule: Q04DX003 (ip), vehicle: saline with Tween-80): 0 of 6

O=C1c2cc([N+](=O)[O-])ccc2-c2c1cccc2[N+](=O)[O-]
survivor count (dose: 75.0 mg/kg/injection, schedule: Q01DX001 (ip), vehicle: Klucel (hydroxypropylcellulose) (HPC)): 6 of 6 | survivor count (dose: 150.0 mg/kg/injection, schedule: Q01DX001 (ip), vehicle: Klucel (hydroxypropylcellulose) (HPC)): 6 of 6

N=C(N)SCc1ccccc1Cl
T/C (dose: 12.5 mg/kg/injection, schedule: Q04DX002 (ip), vehicle: saline): 144 % of control | survivor count (dose: 100.0 mg/kg/injection, schedule: Q04DX002 (ip), vehicle: saline): 1 of 3 | survivor count (dose: 200.0 mg/kg/injection, schedule: Q04DX002 (ip), vehicle: saline): 0 of 3 | survivor count (dose: 400.0 mg/kg/injection, schedule: Q04DX002 (ip), vehicle: saline): 0 of 3

c1ccc2c(c1)CCc1ccccc1CN(CCN1CCCC1)C2
survivor count (dose: 50.0 mg/kg/injection, schedule: Q01DX009 (ip), vehicle: Klucel (hydroxypropylcellulose) (HPC)): 6 of 6

O=S(=O)(Nc1nccs1)c1ccc(N=Nc2ccc(O)c3ncccc23)cc1
survivor count (dose: 100.0 mg/kg/injection, schedule: Q01DX001 (ip), vehicle: saline): 3 of 6

Cc1cc(CCl)c(C)cc1CCl
survivor count [3]: 0 of 3

NC1CCC(CC2CCCC2)CC1 (configuration not stated)
survivor count [5]: 0 of 6 | survivor count [6]: 0 of 6

CCCCOC(=O)C=O
survivor count (dose: 200.0 mg/kg/injection, schedule: Q01DX009 (ip), vehicle: saline with Tween-80): 2 of 3

CCC(OO)(C1=NC(C)(C)CO1)c1ccncc1Br (configuration not stated)
survivor count (dose: 400.0 mg/kg/injection, schedule: Q01DX001 (ip), vehicle: Klucel (hydroxypropylcellulose) (HPC)): 1 of 6

CCOC(=O)/C=C\CBr
survivor count (dose: 200.0 mg/kg/injection, schedule: Q01DX001 (ip), vehicle: saline): 3 of 6 | survivor count [7]: 2 of 6

Cc1c(Cl)c(Cl)cc([N+](=O)[O-])c1Cl
T/C (dose: 100.0 mg/kg/injection, schedule: Q01DX009 (sc), vehicle: olive oil, sesame oil, peanut oil): 129 % of control

O=C(c1ccc(Cl)cc1)c1cccc[n+]1Cc1ccccc1
survivor count (dose: 150.0 mg/kg/injection, schedule: Q01DX009 (ip), vehicle: Klucel (hydroxypropylcellulose) (HPC)): 3 of 6 | survivor count [5]: 0 of 6 | survivor count (dose: 225.0 mg/kg/injection, schedule: Q01DX009 (ip), vehicle: Klucel (hydroxypropylcellulose) (HPC)): 0 of 6 | survivor count (dose: 335.0 mg/kg/injection, schedule: Q01DX009 (ip), vehicle: Klucel (hydroxypropylcellulose) (HPC)): 0 of 6 | survivor count [6]: 0 of 6

CC(CO)(CO)N=Cc1ccccc1O.CC(CO)(CO)N=Cc1ccccc1O.[Co]
survivor count [7]: 0 of 6

CCOC(=O)Cn1c2ccccc2c2cc3c(C)nccc3c(C)c21
survivor count (dose: 300.0 mg/kg/injection, schedule: Q04DX003 (ip), vehicle: saline with Tween-80): 5 of 10

CCCCCCCCCCCCCCCCNCC(=O)Nc1ccc(S(=O)(=O)c2ccc(NC(=O)CNCCCCCCCCCCCCCCCC)cc2)cc1
survivor count (dose: 128.0 mg/kg/injection, schedule: Q01DX015 (ip), vehicle: carboxymethylcellulose (CMC)): 1 of 6 | survivor count (dose: 400.0 mg/kg/injection, schedule: Q01DX001 (ip), vehicle: other): 2 of 6

CCc1ccc(NC(=S)NC(=O)/C=C/c2ccccc2)cc1
survivor count [4]: 6 of 6

S=c1[nH]nc(NC2CCCCC2)s1
survivor count (dose: 200.0 mg/kg/injection, schedule: Q01DX009 (ip), vehicle: other): 2 of 6 | survivor count (dose: 400.0 mg/kg/injection, schedule: Q01DX009 (ip), vehicle: other): 0 of 6

CN(C)N=Nc1cn(C)c(=O)[nH]c1=O
T/C (dose: 100.0 mg/kg/injection, schedule: Q04DX003 (ip), vehicle: water): 125 and 133 % of control | T/C (dose: 200.0 mg/kg/injection, schedule: Q04DX003 (ip), vehicle: water): 126 [5 of 6 alive] and 143 % of control | survivor count (dose: 300.0 mg/kg/injection, schedule: Q04DX003 (ip), vehicle: water): 1 of 6

CCC(=O)c1ccc2c(c1)N(CCCN1CCN(CCO)CC1)c1ccccc1S2
survivor count [1]: 5 of 6 | survivor count (dose: 12.5 mg/kg/injection, schedule: Q03HX024 (ip), vehicle: saline): 4 of 6 | survivor count (dose: 16.0 mg/kg/injection, schedule: Q01DX009 (ip), vehicle: saline): 6 of 6 | survivor count [2]: 5 of 6 | survivor count (dose: 25.0 mg/kg/injection, schedule: Q03HX024 (ip), vehicle: saline): 2 of 6 | survivor count (dose: 50.0 mg/kg/injection, schedule: Q01DX009 (ip), vehicle: saline): 4 of 6 | survivor count (dose: 64.0 mg/kg/injection, schedule: Q01DX009 (ip), vehicle: saline): 3 of 6 | survivor count (dose: 100.0 mg/kg/injection, schedule: Q01DX009 (ip), vehicle: saline): 0 of 6 | survivor count (dose: 150.0 mg/kg/injection, schedule: Q01DX001 (ip), vehicle: saline): 1 of 6 | survivor count (dose: 300.0 mg/kg/injection, schedule: Q01DX001 (ip), vehicle: saline): 0 of 6

ClCc1nc(-c2ccco2)no1
survivor count (dose: 200.0 mg/kg/injection, schedule: Q01DX009 (ip), vehicle: Klucel (hydroxypropylcellulose) (HPC)): 2 of 6 | survivor count (dose: 400.0 mg/kg/injection, schedule: Q01DX009 (ip), vehicle: Klucel (hydroxypropylcellulose) (HPC)): 0 of 6

CC(C)(C)c1ccc(SC(=O)NCCCl)cc1
survivor count [6]: 0 of 6

O=[N+]([O-])c1cccc(Cl)c1O
survivor count (dose: 400.0 mg/kg/injection, schedule: Q01DX001 (ip), vehicle: gum acacia): 0 of 6

CCCCCC[As](=O)(O)O
survivor count (dose: 12.5 mg/kg/injection, schedule: Q01DX001 (ip), vehicle: carboxymethylcellulose (CMC)): 1 of 4 | survivor count (dose: 25.0 mg/kg/injection, schedule: Q01DX001 (ip), vehicle: carboxymethylcellulose (CMC)): 0 of 4 | survivor count (dose: 50.0 mg/kg/injection, schedule: Q01DX001 (ip), vehicle: carboxymethylcellulose (CMC)): 0 of 4
